Drawing on doi:10.1101/2024.09.10.612318, this text covers binding for 1 substance.

The chains behind the UniProt entries cited, without tags or fusion partners.
UniProt Q13547: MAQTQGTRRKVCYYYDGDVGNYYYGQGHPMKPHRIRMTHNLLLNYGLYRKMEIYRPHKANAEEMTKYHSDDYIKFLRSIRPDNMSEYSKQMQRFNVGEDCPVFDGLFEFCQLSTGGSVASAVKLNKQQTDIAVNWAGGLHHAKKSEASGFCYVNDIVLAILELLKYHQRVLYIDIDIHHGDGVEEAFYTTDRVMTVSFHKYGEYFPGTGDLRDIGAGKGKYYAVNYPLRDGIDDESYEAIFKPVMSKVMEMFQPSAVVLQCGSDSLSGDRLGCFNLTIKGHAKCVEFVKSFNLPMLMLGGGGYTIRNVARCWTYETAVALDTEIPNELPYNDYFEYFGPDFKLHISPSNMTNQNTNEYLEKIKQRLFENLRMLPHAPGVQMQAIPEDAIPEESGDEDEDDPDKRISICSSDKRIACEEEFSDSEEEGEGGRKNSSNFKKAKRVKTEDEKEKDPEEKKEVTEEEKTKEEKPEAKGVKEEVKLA

The target of this experiment is T1, N-terminally 10xHis-3xFLAG-TEV tagged MIDEAS (UniProt Q6PJG2).
T1 sequence: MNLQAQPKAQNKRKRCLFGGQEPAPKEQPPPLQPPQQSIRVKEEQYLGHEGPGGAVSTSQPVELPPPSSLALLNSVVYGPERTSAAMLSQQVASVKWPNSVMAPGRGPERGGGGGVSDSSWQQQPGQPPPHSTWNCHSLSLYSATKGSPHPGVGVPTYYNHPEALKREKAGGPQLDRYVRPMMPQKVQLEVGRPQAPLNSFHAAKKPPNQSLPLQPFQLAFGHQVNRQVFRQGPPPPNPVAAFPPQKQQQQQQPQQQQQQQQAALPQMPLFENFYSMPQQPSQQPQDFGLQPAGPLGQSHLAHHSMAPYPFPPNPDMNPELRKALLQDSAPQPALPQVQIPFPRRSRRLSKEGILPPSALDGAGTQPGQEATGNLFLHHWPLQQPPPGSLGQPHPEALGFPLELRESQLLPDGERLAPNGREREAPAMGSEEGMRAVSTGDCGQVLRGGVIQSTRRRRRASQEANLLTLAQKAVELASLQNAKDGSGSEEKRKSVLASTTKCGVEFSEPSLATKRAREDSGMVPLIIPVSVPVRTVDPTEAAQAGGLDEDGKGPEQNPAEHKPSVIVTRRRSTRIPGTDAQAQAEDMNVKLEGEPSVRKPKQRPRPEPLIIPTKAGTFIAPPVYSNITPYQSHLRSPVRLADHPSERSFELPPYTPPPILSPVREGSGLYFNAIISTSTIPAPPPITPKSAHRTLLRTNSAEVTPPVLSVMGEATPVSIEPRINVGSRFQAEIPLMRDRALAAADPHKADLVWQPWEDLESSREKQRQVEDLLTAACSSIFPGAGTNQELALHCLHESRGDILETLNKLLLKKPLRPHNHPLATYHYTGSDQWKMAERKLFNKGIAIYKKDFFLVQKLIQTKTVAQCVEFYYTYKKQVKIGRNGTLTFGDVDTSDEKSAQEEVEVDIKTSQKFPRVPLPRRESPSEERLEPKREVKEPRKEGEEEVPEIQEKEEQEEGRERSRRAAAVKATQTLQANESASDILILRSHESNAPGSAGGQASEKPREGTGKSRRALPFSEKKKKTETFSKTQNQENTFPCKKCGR
As to the kind of experiment: co-purification (anti-FLAG immunoaffinity resin, then gel filtration); co-transfected HEK293F, lysate on anti-FLAG resin by tagged MIDEAS, RNaseA, TEV release, Superdex 200 Increase 10/300 GL in 25 mM HEPES pH 7.5, 50 mM potassium acetate, 0.5 mM TCEP. For orientation: SEC sorts molecules by how far they enter the pores of the column.

No constants are given. Whether binding was seen depends on the method and setting. Some results given as binding are weak or reduced against the parent protein; the word gives no strength. Sequences can lack the tags named with a protein.

As to “HDAC1 (of the MiDAC preparation) (from UniProt Q13547 1-482) (enzyme)”, the binding result is given as “binds”.
